{"source": "patent US20040033257A1", "about": "“Pharmaceutical formulation in a drug delivery system and process for preparing the same” (Strides Inc., priority 2002, published 2004)", "origin": "cited, not measured here", "system": "histamine skin wheal", "details": "human; single and repeated doses", "data": [{"smiles": "CCOC(=O)N1CCC(=C2c3ccc(Cl)cc3CCc3cccnc32)CC1", "note": "[Loratadine, ethyl 4-(8-chloro-5,6-dihydro-11-H-benzo[5,6]cyclohepta[1,2-b]pyridin-11-ylidine)-1-piperadine carboxylate]", "values": [{"measurement": "antihistamine effect beginning (onset)", "value": "1 to 3", "unit": "h"}]}]}
